Measured values reported in article doi:10.1101/2022.12.19.521009.

Molecular target: UmSee1-TurboID-3HA (Ustilago maydis)
Assay: affinity purification with mass spectrometry

“ZmSIP2 (Zea mays See1-interacting protein 2) (from UniProt A0A1D6G9Q0)” was tested, and the binding was “binds”.

No constants are given. Whether binding was seen depends on the method and setting. In cells and extracts the contact can be indirect. Here binding means that the protein was enriched with, or labelled near, the bait; the list need not be complete.
